The values below are quoted from earlier work in patent US10125098B2, “Therapeutic compounds and methods of use thereof” (GENENTECH, INC., priority 2014, dated 2018).

For this data set the following is noted: lidocaine administered topically (Lidoderm patch); cited from earlier work.

Take `CCN(CC)CC(=O)Nc1c(C)cccc1C` [lidocaine]: the plasma concentrations result was “about 1 μM”.
